Measurements reported in article PMC9863266, “Preclinical Studies and Drug Combination of Low-Cost Molecules for Chagas Disease” (Pharmaceuticals, 2022).

Assays:
Type in all cases: cell-based
[1] = test system: Y strain of T. cruzi in the epimastigote form; assay: Mechanism of death by 1H-NMR
[2] = test system: epimastigote form of T. cruzi, Tulahuen 2 strain; assay: Viability by flow cytometry, CA-AM/IP labeling; conditions: 20 × IC50
Experimental: Additionally, we evaluated the viability of treated parasites by flow cytometry analysis after incubation with methylated acetoxycalcein (CA-AM) and propidium iodide (IP). […] Since the methodology used to determine the IC50 is based on 5 days of incubation, doses 20 times higher were used to analyze cell viability in shorter times. Similarly, these compounds’ concentrations were used to determine the death mechanism involved at the aforementioned times.
Viability studies of parasites by flow cytometry: The feasibility studies were carried out by evaluating the esterase activity of the parasites using Acetoxymethylated Calcein (CA-AM) and IP (Thermo Fisher Scientific). […] Fluorescence intensity for 10,000 events was acquired from two independent experiments and data were analyzed using BD CSampler software (BD Bioscience).

[3] = test system: epimastigote form of T. cruzi, Tulahuen 2 strain; assay: Mechanism of death by flow cytometry, AV/IP labeling; conditions: 20 × IC50
Experimental: Parasites were immediately analyzed on an Accuri C6 flow cytometer (BD Bioscience, Franklin Lakes, New Jersey, U.S.). […] Ten thousand events were analyzed for each of the two independent experiments. Data were analyzed using BD CSampler software (BD Bioscience). Untreated parasites were used as a control. For the positive control of apoptosis and necrosis, the parasites were treated with hydrogen peroxide (H2O2) 50 µM and 100 µM for 2.5 h, respectively. These single-spot controls were used to calculate color compensation for flow cytometry.

Structure (SMILES) | Mechanism of death suggested by 1H-NMR [1] | CH2/CH3 Ratio ([1]; 10 times IC50, control 0.27) | Cell death mechanism from CA-AM/IP labeling [2] | Cell death mechanism from AV/IP labeling [3] | Apparition of the Signal of Choline (3.10–3.30) ppm ([1]; 10 times IC50, control YES)
CC1CS(=O)(=O)CCN1/N=C/c1ccc([N+](=O)[O-])o1 (stereo not shown) [Nfx, Nifurtimox, reference compound] | necrosis | 0.25 | late apoptosis mechanism | late apoptotic/necrotic mechanism | –
O=C(Cn1ccnc1[N+](=O)[O-])NCc1ccccc1 [Bnz, Benznidazole] | neither apoptosis nor necrosis characteristic changes | – | No changes | – | YES
